PubChem BioAssay AID1259425, University of Nebraska Medical Center, 2018

Purpose: 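Seek colon cancer weak points whose silencing resembles KSR1 loss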 (primary screen)
System: HCT116 human colon cancer cells
Knock-down reagent: siRNA pool against human genes, 50 nM siRNA
Read-out: 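After 50 nM siRNA pool, branched-DNA assay measures six marker transcripts per well, minus blank, normalised to the geometric mean of two housekeeping transcripts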
Scale: BNIP3L mRNA: higher = more BNIP3L transcript after knockdown
Shown is one part, drawn at random, of about 14,000 deposited reagents. Further read-outs or replicates are left out here. Not stated in the record: the time to read-out.

{"gene knocked down":"ARMCX5 (armadillo repeat containing X-linked 5)","BNIP3L mRNA, set 1":0.129}
{"gene knocked down":"NAXD (NAD(P)HX dehydratase)","BNIP3L mRNA, set 1":0.143}
{"gene knocked down":"OPN1LW (opsin 1, long wave sensitive)","BNIP3L mRNA, set 1":0.232}
{"gene knocked down":"NKD2 (NKD inhibitor of Wnt signaling pathway 2)","BNIP3L mRNA, set 1":0.152}
{"gene knocked down":"NEK1 (NIMA related kinase 1)","BNIP3L mRNA, set 1":0.0401}
{"gene knocked down":"SSTR1 (somatostatin receptor 1)","BNIP3L mRNA, set 1":0.132}
{"gene knocked down":"DOCK2 (dedicator of cytokinesis 2)","BNIP3L mRNA, set 1":0.0598}
{"gene knocked down":"RPS4Y1 (ribosomal protein S4 Y-linked 1)","BNIP3L mRNA, set 1":0.0717}
{"gene knocked down":"IMPACT (impact RWD domain protein)","BNIP3L mRNA, set 1":0.057}
{"gene knocked down":"FBXW8 (F-box and WD repeat domain containing 8)","BNIP3L mRNA, set 1":0.0448}
{"gene knocked down":"WDR5 (WD repeat domain 5)","BNIP3L mRNA, set 1":0.307}
{"gene knocked down":"NTSR2 (neurotensin receptor 2)","BNIP3L mRNA, set 1":0.162}
{"gene knocked down":"BPESC1 (blepharophimosis, epicanthus inversus and ptosis candidate 1)","BNIP3L mRNA, set 1":0.212}
{"gene knocked down":"NUP93 (nucleoporin 93)","BNIP3L mRNA, set 1":0.131}
{"gene knocked down":"L1TD1 (LINE1 type transposase domain containing 1)","BNIP3L mRNA, set 1":0.0879}
{"gene knocked down":"CDH9 (cadherin 9)","BNIP3L mRNA, set 1":0.16}
{"gene knocked down":"ZNF155 (zinc finger protein 155)","BNIP3L mRNA, set 1":0.142}
{"gene knocked down":"BGN (biglycan)","BNIP3L mRNA, set 1":0.0536}
{"gene knocked down":"GBE1 (1,4-alpha-glucan branching enzyme 1)","BNIP3L mRNA, set 1":0.108}
{"gene knocked down":"SPANXA2 (SPANX family member A2)","BNIP3L mRNA, set 1":0.252}
{"gene knocked down":"ABCA11P (ATP binding cassette subfamily A member 11, pseudogene)","BNIP3L mRNA, set 1":0.108}
{"gene knocked down":"PRPF6 (pre-mRNA processing factor 6)","BNIP3L mRNA, set 1":0.0535}
{"gene knocked down":"G6PC2 (glucose-6-phosphatase catalytic subunit 2)","BNIP3L mRNA, set 1":0.0632}
{"gene knocked down":"KLHL7 (kelch like family member 7)","BNIP3L mRNA, set 1":0.073}
{"gene knocked down":"ASIP (agouti signaling protein)","BNIP3L mRNA, set 1":0.0521}
{"gene knocked down":"SCARA3 (scavenger receptor class A member 3)","BNIP3L mRNA, set 1":0.0892}
{"gene knocked down":"PIAS2 (protein inhibitor of activated STAT 2)","BNIP3L mRNA, set 1":0.174}
{"gene knocked down":"PARPBP (PARP1 binding protein)","BNIP3L mRNA, set 1":0.112}
{"gene knocked down":"PWP1 (PWP1 homolog, endonuclein)","BNIP3L mRNA, set 1":0.073}
{"gene knocked down":"TUBG1 (tubulin gamma 1)","BNIP3L mRNA, set 1":0.119}
{"gene knocked down":"PRKCG (protein kinase C gamma)","BNIP3L mRNA, set 1":0.233}
{"gene knocked down":"TMA16 (translation machinery associated 16 homolog)","BNIP3L mRNA, set 1":0.135}
{"gene knocked down":"CDC42SE2 (CDC42 small effector 2)","BNIP3L mRNA, set 1":0.0873}
{"gene knocked down":"CEP97 (centrosomal protein 97)","BNIP3L mRNA, set 1":0.153}
{"gene knocked down":"HUS1 (HUS1 checkpoint clamp component)","BNIP3L mRNA, set 1":0.245}
{"gene knocked down":"LYN (LYN proto-oncogene, Src family tyrosine kinase)","BNIP3L mRNA, set 1":0.1}

Copied from the list.
Under “BNIP3L mRNA, set 1”, CEP97 (centrosomal protein 97) reads 0.153
For “BNIP3L mRNA, set 1”, BGN (biglycan) reads 0.0536
SCARA3 (scavenger receptor class A member 3), BNIP3L mRNA, set 1: 0.0892
LYN (LYN proto-oncogene, Src family tyrosine kinase), BNIP3L mRNA, set 1: 0.1
